Test results: the supplement of paper PMC11732987, “Enantioselective OTUD7B fragment discovery through chemoproteomics screening and high-throughput optimisation” (Communications Chemistry, 2025)
The list shows a part of the results. The data scatter; read single values as rough.

The chains behind the UniProt entries cited, without tags or fusion partners. Where a name states a change or a piece, a line headed by the entry shows the natural chain unless it says otherwise.
UniProt Q7Z4H3: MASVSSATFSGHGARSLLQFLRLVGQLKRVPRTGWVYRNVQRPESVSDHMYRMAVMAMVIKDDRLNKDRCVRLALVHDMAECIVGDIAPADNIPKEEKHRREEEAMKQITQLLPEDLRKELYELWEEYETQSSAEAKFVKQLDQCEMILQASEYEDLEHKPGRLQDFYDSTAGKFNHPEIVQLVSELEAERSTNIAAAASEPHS

biological target: T1, HDDC2 C82 (UniProt Q7Z4H3); experiment: log2 mean competition ratio of IA-DTB cysteine labelling (DMSO/compound) (log2 ratio); higher = stronger cysteine engagement by compound; details: 50 µM; treatment time: 4 h; cell line lysate: HEK293T
T1 sequence (whole entry): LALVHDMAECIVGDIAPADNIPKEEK
Protocol: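 IA-DTB competitive cysteine chemoproteomics in HEK293T RIPA lysate. Lysates were treated with compound 29 or 30 at 50 or 200 µM for 4 h, then IA-DTB (500 µM, 1 h), trypsin-digested, NeutrAvidin-enriched and analysed by diaPASEF. Competition ratio = intensity DMSO / intensity compound (n=4 treated, n=64 DMSO); binding: mean log2 CR ≥ 1 and p ≤ 0.05 plus QC filters. Target is the cysteine site.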

Row | Structure (SMILES) | log2 mean competition ratio
1 | O=C(CCl)N[C@H]1CCCc2ccccc21 | -0.153
2 | O=C(CCl)N[C@@H]1CCCc2ccccc21 | -0.355

same assay, conditions: 200 µM; treatment time: 4 h; cell line lysate: HEK293T

Row | Structure (SMILES) | log2 mean competition ratio
3 | O=C(CCl)N[C@H]1CCCc2ccccc21 | -0.124
4 | O=C(CCl)N[C@@H]1CCCc2ccccc21 | 0.115
